Measurements: the supplement of paper PMC6411743
± gives the standard deviation of the averaged measurements. The list shows a part of the results, in another mix than the full data.

Amino acid sequences for entries named in this document (tags omitted). A change or cut given only in a name is not applied to a line headed by its entry.
UniProt O75175, whole entry: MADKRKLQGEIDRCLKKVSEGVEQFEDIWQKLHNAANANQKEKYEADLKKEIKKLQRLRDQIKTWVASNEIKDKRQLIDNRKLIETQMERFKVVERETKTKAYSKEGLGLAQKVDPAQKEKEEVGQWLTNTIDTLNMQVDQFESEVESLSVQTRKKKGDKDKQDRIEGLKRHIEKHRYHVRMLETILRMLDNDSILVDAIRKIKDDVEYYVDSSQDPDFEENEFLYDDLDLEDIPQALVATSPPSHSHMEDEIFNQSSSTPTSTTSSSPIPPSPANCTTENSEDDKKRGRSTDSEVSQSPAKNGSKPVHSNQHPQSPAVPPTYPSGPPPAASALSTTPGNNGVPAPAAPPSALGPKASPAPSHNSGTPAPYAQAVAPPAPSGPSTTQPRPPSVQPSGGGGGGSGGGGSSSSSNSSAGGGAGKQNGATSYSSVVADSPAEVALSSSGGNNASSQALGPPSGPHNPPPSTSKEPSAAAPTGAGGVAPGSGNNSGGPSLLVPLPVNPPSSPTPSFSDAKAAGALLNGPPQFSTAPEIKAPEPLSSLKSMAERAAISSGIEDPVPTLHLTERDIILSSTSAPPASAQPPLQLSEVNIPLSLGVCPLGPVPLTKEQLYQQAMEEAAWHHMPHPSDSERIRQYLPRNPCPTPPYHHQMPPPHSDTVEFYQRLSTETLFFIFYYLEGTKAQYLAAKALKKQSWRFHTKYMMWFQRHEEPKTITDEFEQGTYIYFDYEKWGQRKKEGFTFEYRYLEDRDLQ
UniProt O75340: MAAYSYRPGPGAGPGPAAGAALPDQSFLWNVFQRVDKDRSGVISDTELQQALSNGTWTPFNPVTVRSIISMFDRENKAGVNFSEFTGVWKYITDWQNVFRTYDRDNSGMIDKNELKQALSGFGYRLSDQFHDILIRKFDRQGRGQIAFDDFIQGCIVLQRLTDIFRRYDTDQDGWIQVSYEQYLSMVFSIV
UniProt O60861: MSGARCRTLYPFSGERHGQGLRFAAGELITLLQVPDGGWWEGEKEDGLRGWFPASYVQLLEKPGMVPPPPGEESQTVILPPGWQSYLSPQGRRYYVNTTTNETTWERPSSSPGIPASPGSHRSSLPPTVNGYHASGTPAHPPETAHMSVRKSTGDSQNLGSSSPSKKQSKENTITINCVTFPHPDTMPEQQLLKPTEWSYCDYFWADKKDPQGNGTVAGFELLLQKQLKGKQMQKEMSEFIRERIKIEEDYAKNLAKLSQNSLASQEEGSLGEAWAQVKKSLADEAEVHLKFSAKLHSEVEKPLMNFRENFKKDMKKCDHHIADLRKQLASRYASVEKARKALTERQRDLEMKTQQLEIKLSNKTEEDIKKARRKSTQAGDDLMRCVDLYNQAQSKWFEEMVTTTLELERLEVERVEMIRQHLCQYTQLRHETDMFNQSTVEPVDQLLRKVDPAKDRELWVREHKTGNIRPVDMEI
UniProt O95707: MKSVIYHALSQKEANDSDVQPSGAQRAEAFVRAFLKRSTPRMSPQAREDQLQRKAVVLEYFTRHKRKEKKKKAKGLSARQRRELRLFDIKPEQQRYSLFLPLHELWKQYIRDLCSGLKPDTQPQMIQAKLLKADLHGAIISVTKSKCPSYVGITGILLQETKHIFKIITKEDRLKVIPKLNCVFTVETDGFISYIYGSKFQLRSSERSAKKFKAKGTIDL
UniProt O75330: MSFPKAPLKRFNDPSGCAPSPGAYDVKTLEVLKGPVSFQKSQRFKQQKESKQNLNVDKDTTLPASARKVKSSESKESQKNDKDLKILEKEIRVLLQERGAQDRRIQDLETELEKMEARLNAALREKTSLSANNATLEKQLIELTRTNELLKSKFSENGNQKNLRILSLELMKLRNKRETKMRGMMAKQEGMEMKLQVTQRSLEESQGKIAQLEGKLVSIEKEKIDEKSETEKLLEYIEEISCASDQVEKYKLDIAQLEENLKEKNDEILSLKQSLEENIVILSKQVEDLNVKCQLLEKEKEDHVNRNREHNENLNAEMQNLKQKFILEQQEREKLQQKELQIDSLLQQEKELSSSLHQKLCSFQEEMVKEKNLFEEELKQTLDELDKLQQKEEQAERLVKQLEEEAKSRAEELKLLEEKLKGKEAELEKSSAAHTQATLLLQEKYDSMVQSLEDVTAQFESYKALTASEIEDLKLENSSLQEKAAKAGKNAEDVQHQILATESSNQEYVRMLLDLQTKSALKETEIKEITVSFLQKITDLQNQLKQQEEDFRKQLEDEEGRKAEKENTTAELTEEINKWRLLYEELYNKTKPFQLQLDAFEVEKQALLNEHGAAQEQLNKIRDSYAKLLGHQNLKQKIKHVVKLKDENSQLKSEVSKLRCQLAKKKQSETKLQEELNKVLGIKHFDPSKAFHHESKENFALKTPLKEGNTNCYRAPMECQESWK
UniProt O75093: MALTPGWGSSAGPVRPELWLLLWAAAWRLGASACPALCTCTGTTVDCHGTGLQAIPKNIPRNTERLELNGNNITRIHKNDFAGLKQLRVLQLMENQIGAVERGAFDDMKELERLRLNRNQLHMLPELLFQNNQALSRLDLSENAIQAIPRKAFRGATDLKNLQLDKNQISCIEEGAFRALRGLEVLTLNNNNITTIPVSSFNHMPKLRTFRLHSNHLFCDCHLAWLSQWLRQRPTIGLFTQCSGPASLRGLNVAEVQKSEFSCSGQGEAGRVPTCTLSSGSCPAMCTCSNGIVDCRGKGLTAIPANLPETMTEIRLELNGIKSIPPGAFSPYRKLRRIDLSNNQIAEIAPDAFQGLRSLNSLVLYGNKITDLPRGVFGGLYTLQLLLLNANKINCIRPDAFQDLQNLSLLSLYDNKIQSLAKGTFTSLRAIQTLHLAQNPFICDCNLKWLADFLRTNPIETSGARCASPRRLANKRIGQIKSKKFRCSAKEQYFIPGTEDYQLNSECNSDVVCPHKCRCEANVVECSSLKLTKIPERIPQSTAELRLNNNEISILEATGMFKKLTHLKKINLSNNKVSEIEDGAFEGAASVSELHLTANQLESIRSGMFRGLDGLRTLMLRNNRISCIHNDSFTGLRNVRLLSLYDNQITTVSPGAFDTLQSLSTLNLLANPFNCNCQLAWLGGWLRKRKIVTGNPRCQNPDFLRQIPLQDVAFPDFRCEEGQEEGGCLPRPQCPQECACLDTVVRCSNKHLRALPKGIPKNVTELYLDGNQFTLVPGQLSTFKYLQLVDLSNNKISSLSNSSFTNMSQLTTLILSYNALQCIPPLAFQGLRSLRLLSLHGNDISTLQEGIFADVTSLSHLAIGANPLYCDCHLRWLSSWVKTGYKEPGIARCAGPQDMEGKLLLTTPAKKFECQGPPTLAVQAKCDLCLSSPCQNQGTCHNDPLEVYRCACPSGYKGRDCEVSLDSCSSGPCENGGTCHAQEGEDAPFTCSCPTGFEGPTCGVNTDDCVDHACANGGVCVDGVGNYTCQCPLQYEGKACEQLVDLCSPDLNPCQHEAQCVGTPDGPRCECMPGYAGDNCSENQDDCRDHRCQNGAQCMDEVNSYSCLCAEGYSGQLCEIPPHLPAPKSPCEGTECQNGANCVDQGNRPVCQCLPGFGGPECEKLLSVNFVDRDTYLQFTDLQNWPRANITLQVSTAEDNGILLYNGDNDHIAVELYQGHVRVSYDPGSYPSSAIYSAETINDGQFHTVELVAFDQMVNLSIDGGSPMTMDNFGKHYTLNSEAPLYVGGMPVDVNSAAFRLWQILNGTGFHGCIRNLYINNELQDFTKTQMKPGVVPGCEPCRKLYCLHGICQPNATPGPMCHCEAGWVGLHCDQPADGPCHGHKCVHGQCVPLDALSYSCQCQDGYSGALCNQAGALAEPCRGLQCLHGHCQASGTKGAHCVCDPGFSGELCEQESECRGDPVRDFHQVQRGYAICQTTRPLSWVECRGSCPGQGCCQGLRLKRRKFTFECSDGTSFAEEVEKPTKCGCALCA
UniProt O75369, whole entry: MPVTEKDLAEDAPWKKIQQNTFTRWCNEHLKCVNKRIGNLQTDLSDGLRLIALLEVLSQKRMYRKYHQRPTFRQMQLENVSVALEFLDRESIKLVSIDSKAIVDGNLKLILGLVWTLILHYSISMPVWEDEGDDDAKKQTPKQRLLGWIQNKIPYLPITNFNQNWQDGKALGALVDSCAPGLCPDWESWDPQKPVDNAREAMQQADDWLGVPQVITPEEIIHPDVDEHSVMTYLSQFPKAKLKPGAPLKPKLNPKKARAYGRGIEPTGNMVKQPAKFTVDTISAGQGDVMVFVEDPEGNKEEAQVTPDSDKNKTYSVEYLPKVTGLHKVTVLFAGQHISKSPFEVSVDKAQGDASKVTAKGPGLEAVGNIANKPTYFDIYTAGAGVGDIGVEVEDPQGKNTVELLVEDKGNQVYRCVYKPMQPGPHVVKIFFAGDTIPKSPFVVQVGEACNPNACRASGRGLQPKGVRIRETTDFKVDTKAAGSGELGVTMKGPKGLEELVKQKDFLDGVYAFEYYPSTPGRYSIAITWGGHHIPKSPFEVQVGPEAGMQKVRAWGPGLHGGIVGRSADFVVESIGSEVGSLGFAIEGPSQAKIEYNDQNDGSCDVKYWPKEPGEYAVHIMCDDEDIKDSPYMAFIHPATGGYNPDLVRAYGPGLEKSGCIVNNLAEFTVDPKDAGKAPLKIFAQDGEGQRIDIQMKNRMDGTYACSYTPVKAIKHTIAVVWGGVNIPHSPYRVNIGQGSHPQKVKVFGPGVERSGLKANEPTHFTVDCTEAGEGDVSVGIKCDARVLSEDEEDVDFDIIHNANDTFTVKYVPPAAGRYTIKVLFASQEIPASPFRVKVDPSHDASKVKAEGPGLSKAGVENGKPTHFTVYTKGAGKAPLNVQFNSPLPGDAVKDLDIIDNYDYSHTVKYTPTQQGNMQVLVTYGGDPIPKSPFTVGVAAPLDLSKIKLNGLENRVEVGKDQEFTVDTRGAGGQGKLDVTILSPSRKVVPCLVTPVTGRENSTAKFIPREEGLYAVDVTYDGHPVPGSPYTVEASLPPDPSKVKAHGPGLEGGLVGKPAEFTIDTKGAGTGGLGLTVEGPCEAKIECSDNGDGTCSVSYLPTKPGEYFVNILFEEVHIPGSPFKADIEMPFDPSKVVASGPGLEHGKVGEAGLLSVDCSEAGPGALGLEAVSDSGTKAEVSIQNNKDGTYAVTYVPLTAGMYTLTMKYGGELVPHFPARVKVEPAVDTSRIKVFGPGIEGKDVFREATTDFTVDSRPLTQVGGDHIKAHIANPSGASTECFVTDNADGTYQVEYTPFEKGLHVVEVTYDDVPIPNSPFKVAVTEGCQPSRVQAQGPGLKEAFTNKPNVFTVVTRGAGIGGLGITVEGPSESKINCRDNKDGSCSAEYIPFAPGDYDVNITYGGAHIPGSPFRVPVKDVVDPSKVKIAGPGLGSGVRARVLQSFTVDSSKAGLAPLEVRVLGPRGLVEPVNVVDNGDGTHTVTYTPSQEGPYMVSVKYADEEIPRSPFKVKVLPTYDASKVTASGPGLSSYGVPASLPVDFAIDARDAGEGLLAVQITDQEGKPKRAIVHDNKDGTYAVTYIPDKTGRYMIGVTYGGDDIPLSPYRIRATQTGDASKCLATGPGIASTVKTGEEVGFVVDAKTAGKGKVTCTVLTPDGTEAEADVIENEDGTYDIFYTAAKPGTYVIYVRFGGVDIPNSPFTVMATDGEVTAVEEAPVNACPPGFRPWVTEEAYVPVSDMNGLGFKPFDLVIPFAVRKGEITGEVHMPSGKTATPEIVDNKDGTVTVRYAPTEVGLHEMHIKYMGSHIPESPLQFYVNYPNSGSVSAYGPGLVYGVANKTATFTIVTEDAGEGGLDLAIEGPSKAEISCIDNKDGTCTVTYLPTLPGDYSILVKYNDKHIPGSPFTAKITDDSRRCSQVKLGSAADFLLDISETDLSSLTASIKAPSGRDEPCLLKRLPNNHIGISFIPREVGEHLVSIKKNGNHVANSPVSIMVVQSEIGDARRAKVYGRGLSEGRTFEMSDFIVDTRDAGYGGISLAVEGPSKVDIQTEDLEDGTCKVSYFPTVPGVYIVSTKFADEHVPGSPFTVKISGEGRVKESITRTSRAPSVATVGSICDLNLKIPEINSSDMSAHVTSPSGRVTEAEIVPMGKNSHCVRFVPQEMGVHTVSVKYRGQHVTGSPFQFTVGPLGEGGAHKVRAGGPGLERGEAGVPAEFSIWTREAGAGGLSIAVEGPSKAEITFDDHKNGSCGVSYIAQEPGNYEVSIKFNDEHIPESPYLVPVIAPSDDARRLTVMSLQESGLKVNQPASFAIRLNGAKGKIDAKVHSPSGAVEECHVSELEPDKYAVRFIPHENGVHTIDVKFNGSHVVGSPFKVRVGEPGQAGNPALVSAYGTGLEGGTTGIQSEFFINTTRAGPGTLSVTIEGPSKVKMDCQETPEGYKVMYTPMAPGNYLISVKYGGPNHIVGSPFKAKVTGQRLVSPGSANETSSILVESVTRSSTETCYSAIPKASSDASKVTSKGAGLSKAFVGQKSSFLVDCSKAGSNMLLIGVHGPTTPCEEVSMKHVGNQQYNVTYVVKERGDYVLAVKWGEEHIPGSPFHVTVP

Compound: Nc1ncnc2c1ncn2[C@@H]1O[C@H](COP(=O)(O)OP(=O)(O)OP(=O)(O)O)[C@@H](O)[C@H]1O [adenosine triphosphate]
Assay: NP40-soluble protein abundance relative to vehicle (solubility fold change) (ratio); higher = more soluble protein in presence of ATP
In short: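 Jurkat crude lysate (Dounce-homogenised) was treated with eight concentrations from 0.1 to 10 mM for 10 min at room temperature, then 3 min at 37 °C. It was solubilised with 0.8% NP40 and benzonase (60 min, 4 °C) and ultracentrifuged, and the supernatant was TMT-labelled for LC-MS/MS. Intensities were vsn-normalised, and the value is the fold change against the NP40-processed vehicle per replicate, from three independent experiments.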

Target	NP40-soluble protein abundance (concentration: 1mM)	NP40-soluble protein abundance (concentration: 2mM)	NP40-soluble protein abundance (concentration: 4mM)	NP40-soluble protein abundance (concentration: 6mM)	NP40-soluble protein abundance (concentration: 8mM)	NP40-soluble protein abundance (concentration: 10mM)
HERC2 (UniProt O95714)	0.963 ± 0.13	0.979 ± 0.099	1.02 ± 0.13	0.981 ± 0.2	1.05 ± 0.058	1.04 ± 0.11
UniProt O75419 and related entries	1 ± 0.11	1.01 ± 0.079	1.03 ± 0.096	0.97 ± 0.15	1.02 ± 0.076	1.04 ± 0.092
UniProt O60749 and related entries	0.948 ± 0.029	0.968 ± 0.01	0.9157 ± 0.0022	0.989 ± 0.031	0.917 ± 0.022	0.919 ± 0.022
ZC3H11A (UniProt O75152)	0.871 ± 0.028	0.899 ± 0.028	0.972 ± 0.027	1.1 ± 0.025	1.12 ± 0.026	1.17 ± 0.033
UniProt O75525 and related entries	1.1 ± 0.044	1.092 ± 0.009	1.16 ± 0.014	1.18 ± 0.043	1.21 ± 0.023	1.24 ± 0.044
STAM2 (UniProt O75886)	0.931 ± 0.052	0.947 ± 0.027	0.954 ± 0.025	0.959 ± 0.017	0.895 ± 0.023	0.9 ± 0.028
CDC123 (UniProt O75794)	1.09 ± 0.059	1.09 ± 0.018	1.1 ± 0.046	1.05 ± 0.024	1.07 ± 0.031	1.07 ± 0.061
UniProt O95453 and related entries	0.997 ± 0.031	0.999 ± 0.026	0.979 ± 0.017	0.999 ± 0.046	0.98 ± 0.018	0.982 ± 0.019
UniProt O75071	0.902 ± 0.13	1.264 ± 0.0072	0.947 ± 0.074	0.983 ± 0.19	0.858 ± 0.11	0.8836 ± 0.0029
KPNA6 (UniProt O60684)	1.02 ± 0.026	1.02 ± 0.029	1.034 ± 0.0041	1 ± 0.053	1.03 ± 0.014	1.03 ± 0.029
BRD4 (UniProt O60885)	0.999 ± 0.037	1.02 ± 0.028	1.01 ± 0.015	1.06 ± 0.02	1 ± 0.028	1.03 ± 0.016
ENDOD1 (UniProt O94919)	0.936 ± 0.06	0.974 ± 0.034	0.952 ± 0.038	0.967 ± 0.028	0.944 ± 0.029	0.96 ± 0.026
FARS2 (UniProt O95363)	0.986 ± 0.047	1.02 ± 0.046	1.01 ± 0.044	0.965 ± 0.092	0.993 ± 0.052	0.967 ± 0.032
UniProt O95793 and related entries	1.02 ± 0.059	1.07 ± 0.036	1.15 ± 0.02	1.23 ± 0.07	1.24 ± 0.052	1.34 ± 0.079
UniProt O75175 and related entries	1.15 ± 0.04	1.2 ± 0.033	1.23 ± 0.042	1.32 ± 0.1	1.3 ± 0.057	1.332 ± 0.012
ZNF217 (UniProt O75362)	0.97 ± 0.052	0.978 ± 0.049	0.98 ± 0.038	1.03 ± 0.079	0.994 ± 0.053	1.03 ± 0.043
UniProt O75340 and related entries	1.01 ± 0.054	1.04 ± 0.052	1.03 ± 0.033	0.955 ± 0.13	1.05 ± 0.038	1.04 ± 0.036
FAM20B (UniProt O75063)	1.06 ± 0.049	1.017 ± 0.0045	1.03 ± 0.077	0.999 ± 0.074	1.03 ± 0.016	1.03 ± 0.018
LETM1 (UniProt O95202)	0.961 ± 0.058	0.941 ± 0.021	0.939 ± 0.022	0.9753 ± 0.0044	0.934 ± 0.025	0.917 ± 0.03
CTSV (UniProt O60911)	1.06 ± 0.062	0.999 ± 0.048	1.03 ± 0.11	1.01 ± 0.026	1.01 ± 0.1	0.94 ± 0.031

Target	NP40-soluble protein abundance (concentration: 1mM)	NP40-soluble protein abundance (concentration: 2mM)	NP40-soluble protein abundance (concentration: 4mM)	NP40-soluble protein abundance (concentration: 6mM)	NP40-soluble protein abundance (concentration: 8mM)	NP40-soluble protein abundance (concentration: 10mM)
UniProt O60861	0.987 ± 0.05	0.9947 ± 0.0049	0.973 ± 0.034	1.02 ± 0.036	0.9706 ± 0.0053	0.964 ± 0.027
UniProt O94842 and related entries	0.976 ± 0.043	0.986 ± 0.056	1 ± 0.027	1.11 ± 0.043	1.001 ± 0.0049	1 ± 0.071
UniProt O95163	1.07 ± 0.12	1.03 ± 0.084	1.03 ± 0.088	0.966 ± 0.055	1.07 ± 0.037	1.02 ± 0.049
UniProt O75865 and related entries	0.956 ± 0.086	1.01 ± 0.083	0.947 ± 0.069	0.884 ± 0.092	0.92 ± 0.015	0.931 ± 0.042
POP4 (UniProt O95707)	1.01 ± 0.087	0.998 ± 0.028	1.038 ± 0.0046	0.919 ± 0.13	1.1 ± 0.077	1.08 ± 0.064
UniProt O95251 and related entries	1.2 ± 0.014	1.2 ± 0.042	1.25 ± 0.061	1.2 ± 0.11	1.19 ± 0.089	1.32 ± 0.16
UniProt O94985-2	0.924 ± 0.044	0.968 ± 0.098	0.971 ± 0.06	1.01 ± 0.084	0.9 ± 0.05	0.915 ± 0.06
UniProt O95104 and related entries	1.43 ± 0.097	1.46 ± 0.063	1.45 ± 0.031	1.49 ± 0.028	1.44 ± 0.059	1.45 ± 0.028
ZFPL1 (UniProt O95159)	0.993 ± 0.058	1.05 ± 0.044	1.02 ± 0.014	0.994 ± 0.064	1 ± 0.049	1.01 ± 0.039
UniProt O60502 and related entries	0.969 ± 0.012	0.964 ± 0.012	0.952 ± 0.014	0.949 ± 0.019	0.95 ± 0.021	0.94 ± 0.019
GIGYF1 (UniProt O75420)	1.24 ± 0.13	1.28 ± 0.11	1.25 ± 0.039	1.25 ± 0.083	1.18 ± 0.083	1.23 ± 0.099
UniProt O94966-6|O94966-7|O94966-4	0.98 ± 0.027	0.99 ± 0.012	1 ± 0.046	0.958 ± 0.028	0.976 ± 0.022	0.978 ± 0.03
UniProt O95243 and related entries	1.03 ± 0.042	1.03 ± 0.069	1.11 ± 0.069	1.08 ± 0.067	1.12 ± 0.07	1.17 ± 0.034
TAF5L (UniProt O75529)	1.11 ± 0.073	1.08 ± 0.091	1.16 ± 0.11	1.05 ± 0.1	1.16 ± 0.078	1.23 ± 0.17
DENND4B (UniProt O75064)	0.912 ± 0.036	0.999 ± 0.034	0.977 ± 0.022	0.997 ± 0.01	0.942 ± 0.021	0.99 ± 0.058
UniProt O60488 and related entries	1.07 ± 0.094	1.07 ± 0.078	1.06 ± 0.1	0.99 ± 0.14	1.08 ± 0.07	1.05 ± 0.039
UniProt O95197 and related entries	1.01 ± 0.084	1 ± 0.05	0.937 ± 0.041	0.947 ± 0.22	0.94 ± 0.013	0.893 ± 0.047
DKC1 (UniProt O60832)	1.09 ± 0.1	1.09 ± 0.029	1.16 ± 0.053	1.24 ± 0.065	1.43 ± 0.031	1.6 ± 0.1
UniProt O94874	0.995 ± 0.054	1.04 ± 0.034	1.07 ± 0.026	1.1 ± 0.073	1.13 ± 0.037	1.175 ± 0.011
UniProt O94822 and related entries	1.08 ± 0.032	1.09 ± 0.1	1.05 ± 0.02	1.04 ± 0.033	1.07 ± 0.058	1.09 ± 0.069

Target	NP40-soluble protein abundance (concentration: 1mM)	NP40-soluble protein abundance (concentration: 2mM)	NP40-soluble protein abundance (concentration: 4mM)	NP40-soluble protein abundance (concentration: 6mM)	NP40-soluble protein abundance (concentration: 8mM)	NP40-soluble protein abundance (concentration: 10mM)
UniProt O75330 and related entries	0.954 ± 0.045	0.986 ± 0.053	1.01 ± 0.07	1.01 ± 0.03	0.988 ± 0.054	0.997 ± 0.042
UniProt O75190 and related entries	1.11 ± 0.064	1.1 ± 0.047	1.09 ± 0.057	1.08 ± 0.062	1.18 ± 0.1	1.13 ± 0.061
UniProt O95747	1 ± 0.015	1 ± 0.05	0.963 ± 0.029	0.984 ± 0.053	0.952 ± 0.047	0.953 ± 0.065
UniProt O75600 and related entries	1.03 ± 0.087	1 ± 0.08	0.99 ± 0.074	0.983 ± 0.075	1.01 ± 0.057	0.976 ± 0.1
UniProt O94913 and related entries	1.03 ± 0.048	1.03 ± 0.026	1.06 ± 0.031	1.08 ± 0.018	1.04 ± 0.022	1.06 ± 0.02
MRPS14 (UniProt O60783)	0.94 ± 0.075	0.855 ± 0.13	0.884 ± 0.11	0.883 ± 0.27	0.834 ± 0.17	0.74 ± 0.17
UniProt O60880 and related entries	0.933 ± 0.074	0.926 ± 0.083	0.903 ± 0.032	0.937 ± 0.08	0.887 ± 0.025	0.952 ± 0.025
ZMPSTE24 (UniProt O75844)	1.03 ± 0.1	1.01 ± 0.087	0.974 ± 0.082	0.922 ± 0.15	0.998 ± 0.048	0.987 ± 0.05
RANBP6 (UniProt O60518)	0.956 ± 0.094	0.928 ± 0.091	1.01 ± 0.061	0.929 ± 0.13	0.924 ± 0.06	0.975 ± 0.035
NUP155 (UniProt O75694)	1.07 ± 0.084	1.06 ± 0.097	1.06 ± 0.083	0.987 ± 0.12	1.1 ± 0.091	1.09 ± 0.059
UniProt O75396	0.951 ± 0.031	0.926 ± 0.018	0.915 ± 0.031	0.955 ± 0.043	0.925 ± 0.018	0.863 ± 0.068
UniProt O60762 and related entries	1.21 ± 0.19	1.13 ± 0.087	1.1 ± 0.073	0.953 ± 0.066	1.14 ± 0.05	1.11 ± 0.053
DNAJC8 (UniProt O75937)	1 ± 0.086	0.969 ± 0.031	1.03 ± 0.048	1.1 ± 0.095	1.11 ± 0.046	0.949 ± 0.14
SMNDC1 (UniProt O75940)	1.08 ± 0.045	1.12 ± 0.013	1.09 ± 0.011	1.22 ± 0.035	1.13 ± 0.05	1.17 ± 0.042
IPO7 (UniProt O95373)	0.928 ± 0.023	0.964 ± 0.025	0.943 ± 0.059	0.898 ± 0.031	0.904 ± 0.052	0.949 ± 0.041
UniProt O75093	0.996 ± 0.034	1 ± 0.048	1.05 ± 0.094	1.11 ± 0.13	1.12 ± 0.14	1.18 ± 0.099
UniProt O75369-8|O75369-9|O75369 and related entries	0.961 ± 0.025	0.963 ± 0.013	0.93 ± 0.018	0.9754 ± 0.0069	0.926 ± 0.016	0.94 ± 0.027
UniProt O95568 and related entries	0.953 ± 0.046	1.01 ± 0.084	0.972 ± 0.014	1 ± 0.046	0.989 ± 0.15	1.05 ± 0.1
UniProt O75935 and related entries	0.947 ± 0.053	0.913 ± 0.034	0.931 ± 0.054	0.871 ± 0.1	0.941 ± 0.071	0.859 ± 0.09
ERAL1 (UniProt O75616)	1.15 ± 0.13	1.1 ± 0.14	1.17 ± 0.13	1.14 ± 0.24	1.11 ± 0.1	1.14 ± 0.3

Record cards, from the list above:
ENDOD1 (UniProt O94919) is listed with NP40-soluble protein abundance (concentration: 1mM): 0.936 ± 0.06; NP40-soluble protein abundance (concentration: 2mM): 0.974 ± 0.034; NP40-soluble protein abundance (concentration: 4mM): 0.952 ± 0.038; NP40-soluble protein abundance (concentration: 6mM): 0.967 ± 0.028; NP40-soluble protein abundance (concentration: 8mM): 0.944 ± 0.029; NP40-soluble protein abundance (concentration: 10mM): 0.96 ± 0.026
UniProt O60488 and related entries is listed with NP40-soluble protein abundance (concentration: 1mM): 1.07 ± 0.094; NP40-soluble protein abundance (concentration: 2mM): 1.07 ± 0.078; NP40-soluble protein abundance (concentration: 4mM): 1.06 ± 0.1; NP40-soluble protein abundance (concentration: 6mM): 0.99 ± 0.14; NP40-soluble protein abundance (concentration: 8mM): 1.08 ± 0.07; NP40-soluble protein abundance (concentration: 10mM): 1.05 ± 0.039
